Source: ChEMBL document CHEMBL6182906, “Discovery, total synthesis, and biological evaluation of tyrcinnamins as antibacterial agents and tyrosinase activators” (Eur J Med Chem, 2025)
Values after ≈ are worked out from the molar mass of the structure shown.

Test system: Staphylococcus epidermidis
Assay: Antibacterial activity against Staphylococcus epidermidis assessed as bacterial growth inhibition incubated for 16 hrs by broth microdilution assay
Type: functional

CN[C@H](CC(C)C)C(=O)N[C@H]1C(=O)N[C@@H](CC(N)=O)C(=O)N[C@H]2C(=O)N[C@H]3C(=O)N[C@H](C(=O)N[C@H](C(=O)O)c4cc(O)cc(O)c4-c4cc3ccc4O)[C@H](O)c3ccc(c(Cl)c3)Oc3cc2cc(c3O[C@@H]2O[C@H](CO)[C@@H](O)[C@H](O)[C@H]2O[C@H]2C[C@](C)(N)[C@H](O)[C@H](C)O2)Oc2ccc(cc2Cl)[C@H]1O [VANCOMYCIN]
MIC: 2.8 µM (≈ 4.06 µg/mL)
